## Library screen at single concentrations

Amino acid sequences for entries named in this document (tags omitted).
UniProt I6X8D2, whole entry: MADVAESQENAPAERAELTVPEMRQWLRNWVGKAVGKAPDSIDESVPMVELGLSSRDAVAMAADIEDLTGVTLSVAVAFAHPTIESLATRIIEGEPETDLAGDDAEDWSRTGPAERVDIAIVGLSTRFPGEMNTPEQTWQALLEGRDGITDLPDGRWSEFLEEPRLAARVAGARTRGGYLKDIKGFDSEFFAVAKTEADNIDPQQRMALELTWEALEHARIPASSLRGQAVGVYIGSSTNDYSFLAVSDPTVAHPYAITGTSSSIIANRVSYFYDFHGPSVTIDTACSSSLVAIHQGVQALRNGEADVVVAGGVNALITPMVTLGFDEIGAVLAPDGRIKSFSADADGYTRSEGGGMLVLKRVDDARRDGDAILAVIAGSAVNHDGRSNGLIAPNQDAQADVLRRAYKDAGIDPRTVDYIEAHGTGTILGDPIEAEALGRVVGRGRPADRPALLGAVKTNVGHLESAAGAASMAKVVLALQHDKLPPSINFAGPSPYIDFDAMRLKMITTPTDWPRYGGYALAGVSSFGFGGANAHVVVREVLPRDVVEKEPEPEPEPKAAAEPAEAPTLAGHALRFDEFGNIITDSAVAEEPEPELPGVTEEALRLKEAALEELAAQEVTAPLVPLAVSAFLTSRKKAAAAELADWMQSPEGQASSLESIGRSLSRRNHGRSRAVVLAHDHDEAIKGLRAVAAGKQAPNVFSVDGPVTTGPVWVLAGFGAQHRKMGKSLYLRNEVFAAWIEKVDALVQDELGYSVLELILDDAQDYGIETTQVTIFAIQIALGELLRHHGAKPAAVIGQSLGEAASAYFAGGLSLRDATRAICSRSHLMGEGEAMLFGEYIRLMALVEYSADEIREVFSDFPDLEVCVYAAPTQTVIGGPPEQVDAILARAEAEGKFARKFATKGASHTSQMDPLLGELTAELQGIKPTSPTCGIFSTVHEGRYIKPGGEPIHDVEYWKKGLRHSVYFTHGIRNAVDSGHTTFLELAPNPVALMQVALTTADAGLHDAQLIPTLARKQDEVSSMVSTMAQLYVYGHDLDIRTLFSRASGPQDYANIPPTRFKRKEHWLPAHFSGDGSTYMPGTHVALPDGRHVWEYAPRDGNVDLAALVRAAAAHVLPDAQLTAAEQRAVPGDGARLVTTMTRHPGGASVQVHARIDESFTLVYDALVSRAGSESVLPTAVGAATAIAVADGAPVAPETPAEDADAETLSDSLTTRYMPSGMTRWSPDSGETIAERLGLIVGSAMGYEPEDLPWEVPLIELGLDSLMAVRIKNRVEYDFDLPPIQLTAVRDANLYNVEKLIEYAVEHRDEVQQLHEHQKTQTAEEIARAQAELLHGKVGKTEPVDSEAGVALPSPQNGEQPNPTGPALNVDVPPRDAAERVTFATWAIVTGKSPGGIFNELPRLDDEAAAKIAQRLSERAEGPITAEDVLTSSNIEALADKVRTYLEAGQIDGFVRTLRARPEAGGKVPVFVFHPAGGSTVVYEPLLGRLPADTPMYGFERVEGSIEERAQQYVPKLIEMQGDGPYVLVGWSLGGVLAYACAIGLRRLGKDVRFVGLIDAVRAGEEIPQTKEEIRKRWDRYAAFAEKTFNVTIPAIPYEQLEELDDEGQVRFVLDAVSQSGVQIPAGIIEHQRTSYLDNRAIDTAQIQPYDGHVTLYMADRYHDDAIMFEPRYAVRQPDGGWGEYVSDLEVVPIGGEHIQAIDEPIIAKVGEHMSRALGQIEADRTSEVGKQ
UniProt P9WPC5, whole entry: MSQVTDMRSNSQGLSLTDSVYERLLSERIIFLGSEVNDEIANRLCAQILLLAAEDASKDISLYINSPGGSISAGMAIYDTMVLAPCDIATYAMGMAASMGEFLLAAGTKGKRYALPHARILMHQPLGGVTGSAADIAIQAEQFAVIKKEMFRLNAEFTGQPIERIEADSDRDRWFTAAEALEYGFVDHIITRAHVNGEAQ
UniProt P9WPC3, whole entry partner: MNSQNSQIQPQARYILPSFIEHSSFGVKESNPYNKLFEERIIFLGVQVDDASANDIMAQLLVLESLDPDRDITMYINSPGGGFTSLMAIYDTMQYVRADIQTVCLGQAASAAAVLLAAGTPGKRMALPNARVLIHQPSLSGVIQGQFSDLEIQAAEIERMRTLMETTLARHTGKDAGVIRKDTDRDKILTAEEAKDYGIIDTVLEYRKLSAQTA

Values are the deposited “Percent Effect”, in %. How 0% and 100% were set is not recorded. Most values in the screen are low, and negative values occur. This is an unselected part of the compounds tested. Two or more numbers in one place are separate tests of the same structure; such repeats can differ widely. A dash means the value is not listed here; it may have been measured.

Leishmania in macrophages: 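Cell assay of Leishmania donovani living inside macrophages; the read-out is not stated. Concentration: 30 µM. Higher reads as stronger inhibition (inferred: compounds with an IC50 in retests scored well above the rest). About 69,000 compounds were tested under these conditions; 1.5% (about 1,000) showed 50% or more at least once.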
Pks13 thioesterase: 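Enzyme assay of the thioesterase domain of polyketide synthase 13; the read-out is not stated. Target: Polyketide synthase Pks13, Mycobacterium tuberculosis (UniProt I6X8D2). Concentration: 30 µM. The record gives no direction; the compounds picked for IC50 retests had high values, so higher reads as stronger inhibition. Size under these conditions: about 67,000 compounds, about 300 of them at 50% or above in at least one test.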
ClpP1P2: 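ClpP1P2, Mycobacterium tuberculosis (UniProt P9WPC5 and UniProt P9WPC3). Protease assay of ClpP1P2, read by the AMC dye that it sets free. Concentration: 50 µM. Direction is inferred from only a few compounds that gave an IC50; most scored high, so higher reads as stronger inhibition. Most other retested compounds had strongly negative values. About 69,000 compounds were tested under these conditions; 0.015% (about 10) showed 50% or more at least once.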
T. brucei: 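Whole-parasite assay of Trypanosoma brucei over 72 hours; the read-out is not stated. Compounds at 30 µM. Direction is inferred from retests: higher values go with stronger inhibition. Values scatter widely below zero; nearly all retest evidence comes from the higher of the two concentrations used. Size under these conditions: about 64,000 compounds, about 940 of them at 50% or above in at least one test.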

SMILES,Leishmania in macrophages,Pks13 thioesterase,ClpP1P2,T. brucei
CCc1nc(C)ncc1C(=O)N1CCN(CC)c2ccccc21,17.81%,-8.42%,-0.1357%,-28.86%
Cc1occc1C(=O)N1CCOCC2(CCN(Cc3nccs3)C2)C1 (stereo not shown),-,7.639%,-16.29%,-
CCC(CO)N(Cc1cccc(-n2cccn2)c1)Cc1ccccn1 (stereo not shown),-48.15%,-4.209%,-2.399%,-12.51%
Cc1ccc(CC(=O)N2CSCC2C(=O)N(C)Cc2ccco2)o1 (stereo not shown),17.18%,-4.399%,8.002%,-14.81%
CC(C)(C)C(=O)N1CCC(COCc2ccccc2)C1 (stereo not shown),-8.96%,-30.38%,-6.757%,100.1%
Fc1ccc(C2(CNC3=NCCN3)CCCC2)cc1,-,-23.58%,-4.404%,-
CCN(CC)C(=O)c1ccc(-c2ccsc2)nc1C,13.08%,-4.617%,10.33%,40.69%
CC(=O)N1C[C@H](c2cc(O)nc(C)n2)[C@@H](c2ccccc2F)C1,-19.04%,15.55%,-11.27%,-10.77%
O=S(=O)(N1CCOCC1)N1CCCCC1CCc1ccc(O)cc1 (stereo not shown),10.73%,-35.97%,-4.439%,-19.54%
CS(=O)(=O)N1CCOCC2(CN(Cc3ccco3)CCO2)C1.O=C(O)C(F)(F)F (stereo not shown),-12.04%,-,-,-3.522%
CCNC(=O)N1CC[C@H]2CC(=O)N(CC(N)=O)CC[C@H]2C1,-,18.89%,5.007%,-
O=C(O)Cn1ccc(=O)c2cc(F)ccc21,-22.93%,-4.66%,-11.93%,-29.21%
CCN(C)C(=O)Nc1cc(F)c(OC)cc1F,-1.066%,-7.388%,-5.795%,-6.308%
Cc1nc(C)c(Cc2nc(C3CC3)n[nH]2)c(=O)[nH]1,23.08%,-0.1497%,-12.82%,-90.09%
N#Cc1ccc(F)cc1Cn1cnc(C2CCC2)cc1=O,-1.97%,-3.359%,-14.2%,-31.56%
O=C(Nc1cnccn1)[C@H]1C[C@H]2OCC[C@H]2N(c2ncc(F)cn2)C1,-,-29.29%,0.03644%,-
CCCC1C=CCN1C(=O)c1cc(COc2ccc3c(c2)OCO3)[nH]n1 (stereo not shown),29.89%,-31.57%,2.139%,-6.039%
O=C(CCCc1ccccn1)NCC(O)c1c(F)cccc1F (stereo not shown),5.806%,0.8245%,-3.351%,-34.2%
CCC(C)(CC)NC(=O)COc1nn(C)c2nc(C)cc(C)c12,15.21%,12.42%,4.728%,14.73%
C1CCN(CCOC2CCNCC2)CC1,-14.23%,-12.3%,1.553%,-39.73%
COCC(=O)N1CCC2(CCCN(Cc3cc(OC)ccc3F)C2)C1 (stereo not shown),-8.544%,-8.061%,-14.6%,-55.86%
CCOC1CC2(CCN(Cc3nccn3C)CC2)C1,-,-,-0.34%,-
CC(C)COC(=O)N1CCN(C(=O)c2ccc3nccn3c2)CC1,-18.48%,-6.483%,-6.81%,-27.56%
CS(=O)(=O)N1CCc2c(cccc2NC(=O)Nc2ccccn2)C1,24.25%,-6.79%,4.715%,48.29%
Cc1cnc(N2C[C@H]3CN(Cc4csc(C)n4)C(=O)[C@H]3C2)nc1,-,-24.98%,11.59%,-
Cc1cccc(NC(=O)Cc2cnc3n(C)c(=O)[nH]c(=O)n23)c1,5.351%,-38.41%,-10.11%,-
CN1C(=O)C(C)(C)COc2cc(NS(=O)(=O)c3ccccc3F)ccc21,-22.67%,-18.3%,3.442%,-9.952%
Fc1ccccc1Oc1nccnc1C1CCCN(C2CCOCC2)C1 (stereo not shown),38%,-5.317%,2.225%,-5.013%
Cc1cc(C[S+]([O-])CC(=O)NCc2cccs2)no1 (stereo not shown),15.3%,-8.886%,2.116%,30.52%
CC(C)OC[C@H]1CCC[C@]12CN(C(=O)C1CCOCC1)CCO2,25.39%,-17.06%,9.692%,-0.5593%
Cc1nc2n(n1)CCN(S(=O)(=O)c1ccc(Cl)cc1)C2,7.582%,-30.72%,3.925%,-23.94%
Cn1cncc1CN1CCC2(CC1)COCCN(S(C)(=O)=O)C2,-,7.709%,-5.124%,-
O=C(CCCc1ccc(F)cc1)N1C[C@@H](CN2CCOCC2)[C@@H](CO)C1,17.22%,-17.45%,-0.3384%,-98.59%
CNCC(=O)N1CCCC(c2nccnc2Oc2cccc(F)c2)C1 (stereo not shown),-,-31.3%,5.985%,-
COc1cccc2cc(CNC(=O)N3CCC(N4CCCC4)C3)oc12 (stereo not shown),14.69%,-5.106%,-10.63%,-
CN(C)C(=O)Cc1ccc(NC(=O)NC2CCCCC2)cc1,14.33%,-10.81%,-11.34%,5.461%
CCn1nc(C)c(CCNC(=O)C2CCCN(C(C)=O)C2)c1C (stereo not shown),20.59%,-11.84%,-16.11%,-12.16%
COCCNC(=O)C1CC(=O)N(c2n[nH]c3cccc(F)c23)C1 (stereo not shown),3.493%,-31.97%,-4.34%,-23.03%
CS(=O)(=O)N1CCC(CNC(=O)C2CCCC2)CC1,5.004%,27.49%,2.839%,-35.01%
Cc1cc(-c2cc(N)c(=O)n(CC(=O)NC3CCCC3)n2)c(C)o1,-26.08%,0.4343%,-6.955%,-11.96%
CC(=O)Nc1nc(C2CCN(C(C)C)CC2)cs1,19.46% and 3.875%,12.67%,11.82%,-2.522%
O=C(c1ccncc1)N1CCOC2(CCCN(c3nncs3)C2)C1 (stereo not shown),-,-6.837%,-2.09%,-
CC1COCCN1Cc1nc(-c2ccsc2)no1 (stereo not shown),18.94%,-,-8.695%,-0.3401%
Cc1ncsc1-c1nnc(C2CCN(Cc3cccc(Cl)c3)CC2)o1,6.909% and 7.83%,-7.509%,2.594%,-14.73%
Cc1nc(CNC(C)c2cccc(N3CCCC3=O)c2)cs1.Cl (stereo not shown),0.9932%,-,-,-17.14%
Cc1ccc(C(=O)N2CCC3(CCC(=O)N(CC(N)=O)C3)CC2)c(O)c1,-13.42%,-5.432%,-3.882%,-39.76%
O=C(O)C(F)(F)F.[H][C@]12CN(Cc3ccc(C)cc3)C[C@@]1([H])S(=O)(=O)CC[C@@H]2C(=O)NCC1CC1,-10.14%,-,-,-76.84%
Cn1cc(C(=O)NCc2cn3c(n2)CN(Cc2ccccn2)CC3)cn1,-,8.168%,-2.492%,-
O=C(O)C(F)(F)F.[H][C@]12CCN(c3ncc(CC)cn3)[C@@]1([H])CCC(=O)N2CC1CCOCC1,20.74%,-,-,-52.22%
Cc1ccccc1CN1CCOC(c2nccc(CN(C)C)n2)C1 (stereo not shown),7.354% and 15.7%,-11.18%,-5.295%,-7.839%
O=C(O)C(F)(F)F.O=C(O)C(F)(F)F.O=C(O)C(F)(F)F.c1cncc(CN2CCCC3(COCCN(c4cnccn4)C3)C2)c1 (stereo not shown),15.51%,-,-,-8.344%
CCOCC1CN(Cc2ccoc2)Cc2nn(C)cc21.O=C(O)C(F)(F)F (stereo not shown),35.3%,-,-,-19.82%
O=C(NCc1nccs1)N1CCOC(c2ccccc2Cl)C1 (stereo not shown),3.177%,-,-6.966%,-60.33%
O=C(O)C1(Cc2cccc(-c3ccc(F)cc3)c2)CCOCC1,17.47%,-16.59%,-4.358%,-23.24%
COc1ccc(NC(=O)N(CCO)Cc2ccsc2)c(OC)c1,-33.02%,-18.89%,-9.655%,-
Cc1nsc(C(=O)NCCCc2ccccc2)n1,7.564%,24.95%,0.4636%,-6.915%
O=C(CCN1CCC(C(=O)c2cc(F)ccc2F)CC1)NC1CCCC1,-2.458%,-7.659%,-9.999%,-81.6%
O=c1c2ccccc2nc2n1CCN(Cc1cccs1)CC2,-3.639%,-40.92%,8.406%,0.4762%
CC(C)(CN1CCC(Cc2ccc(C(=O)O)cc2)C1)N1CCOCC1 (stereo not shown),9.395%,-11.35%,0.9401%,-46.78%
Cc1cnn(CC2CN(Cc3nc(-c4ccoc4)no3)CCO2)c1 (stereo not shown),23.01%,-10.84%,6.684%,1.18%
COc1ccc(Br)cc1CC(=O)N1CCCC1,28.05%,-34.58%,-6.726%,-11.16%
CCOCC1CN(Cc2cnn(C)c2)Cc2ncn(CC3CC3)c21 (stereo not shown),-6.602%,-,-2.267%,-43.54%
CCc1nc(CN(C(C)=O)C2CCN(CCc3cnn(C)c3)C2)no1 (stereo not shown),18.53%,-31.85%,18.43%,-39.76%
COCCn1c(C(=O)NCc2n[nH]c(C)n2)cc2ccccc21,39.17%,-34.42%,1.169%,-3.723%
CCCNc1ccc(C(=O)NCCc2ccc(Cl)cc2)cn1,24.49%,29.1%,-3.68%,5.443%
O=C1NCC[C@]12CN(Cc1ccco1)C[C@H]2c1ccccc1,27.86%,4.876%,-10.22%,-103.1%
c1ccc(CN2Cc3[nH]nc(COCC4CC4)c3C2)nc1,-,-31.87%,-4.025%,-

The first 3 entries again:

{"smiles": "CCc1nc(C)ncc1C(=O)N1CCN(CC)c2ccccc21", "Leishmania in macrophages": 17.81, "Pks13 thioesterase": -8.42, "ClpP1P2": -0.1357, "T. brucei": -28.86}
{"smiles": "Cc1occc1C(=O)N1CCOCC2(CCN(Cc3nccs3)C2)C1", "stereo": "stereo not shown", "Pks13 thioesterase": 7.639, "ClpP1P2": -16.29}
{"smiles": "CCC(CO)N(Cc1cccc(-n2cccn2)c1)Cc1ccccn1", "stereo": "stereo not shown", "Leishmania in macrophages": -48.15, "Pks13 thioesterase": -4.209, "ClpP1P2": -2.399, "T. brucei": -12.51}

The values are deposited in ChEMBL (CHEMBL3988442, “University of Dundee, Small-Polar-MMV Screening Library” (2021)).